Holding throughout (test): co-IP
Experiment [1] concerns the target T1, Apoptosis inhibitor 5 (Api5), endogenous (human (endogenous in MCF7)) (UniProt Q9BZZ5).
T1 sequence: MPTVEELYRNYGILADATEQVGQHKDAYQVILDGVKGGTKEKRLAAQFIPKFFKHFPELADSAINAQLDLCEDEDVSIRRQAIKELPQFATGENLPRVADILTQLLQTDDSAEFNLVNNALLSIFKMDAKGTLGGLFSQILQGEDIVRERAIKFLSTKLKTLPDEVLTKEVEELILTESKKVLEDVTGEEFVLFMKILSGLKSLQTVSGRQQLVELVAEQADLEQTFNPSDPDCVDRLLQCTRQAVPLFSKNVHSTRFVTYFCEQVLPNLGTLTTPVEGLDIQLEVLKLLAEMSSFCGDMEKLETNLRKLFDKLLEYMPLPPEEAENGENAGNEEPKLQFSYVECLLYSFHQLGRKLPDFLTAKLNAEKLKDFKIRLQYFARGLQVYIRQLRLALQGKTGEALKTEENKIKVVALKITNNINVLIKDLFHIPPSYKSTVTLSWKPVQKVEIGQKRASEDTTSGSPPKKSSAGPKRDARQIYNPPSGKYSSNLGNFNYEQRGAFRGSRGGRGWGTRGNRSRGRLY

Another experiment deals with T2, myc-tagged FBXO3 (human) (UniProt Q9UK99).
T2 sequence: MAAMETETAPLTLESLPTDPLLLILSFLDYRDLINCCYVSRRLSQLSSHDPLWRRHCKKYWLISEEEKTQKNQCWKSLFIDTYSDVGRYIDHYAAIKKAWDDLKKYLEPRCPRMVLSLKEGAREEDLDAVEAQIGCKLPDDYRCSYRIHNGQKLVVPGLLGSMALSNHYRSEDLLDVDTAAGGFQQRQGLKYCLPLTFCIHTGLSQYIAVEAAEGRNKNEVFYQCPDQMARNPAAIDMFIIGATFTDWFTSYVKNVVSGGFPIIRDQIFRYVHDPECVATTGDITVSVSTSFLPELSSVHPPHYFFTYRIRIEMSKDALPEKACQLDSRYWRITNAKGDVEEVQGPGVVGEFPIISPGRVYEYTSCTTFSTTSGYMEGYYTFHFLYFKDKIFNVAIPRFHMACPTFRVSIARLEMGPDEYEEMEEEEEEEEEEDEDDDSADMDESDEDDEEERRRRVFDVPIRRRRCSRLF

For the next experiment, the target named is T3, myc-tagged FBXO6 (human) (UniProt Q9NRD1).
T3 sequence: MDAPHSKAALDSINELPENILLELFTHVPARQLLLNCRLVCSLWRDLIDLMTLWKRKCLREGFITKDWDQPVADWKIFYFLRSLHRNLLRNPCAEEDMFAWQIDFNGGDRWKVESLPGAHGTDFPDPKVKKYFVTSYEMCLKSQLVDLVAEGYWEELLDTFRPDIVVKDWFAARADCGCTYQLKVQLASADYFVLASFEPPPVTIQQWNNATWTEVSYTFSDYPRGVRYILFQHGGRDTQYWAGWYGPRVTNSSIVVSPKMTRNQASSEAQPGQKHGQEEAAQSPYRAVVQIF

The next experiment has as its target T4, myc-tagged FBXW2 (human) (UniProt Q9UKT8).
T4 sequence: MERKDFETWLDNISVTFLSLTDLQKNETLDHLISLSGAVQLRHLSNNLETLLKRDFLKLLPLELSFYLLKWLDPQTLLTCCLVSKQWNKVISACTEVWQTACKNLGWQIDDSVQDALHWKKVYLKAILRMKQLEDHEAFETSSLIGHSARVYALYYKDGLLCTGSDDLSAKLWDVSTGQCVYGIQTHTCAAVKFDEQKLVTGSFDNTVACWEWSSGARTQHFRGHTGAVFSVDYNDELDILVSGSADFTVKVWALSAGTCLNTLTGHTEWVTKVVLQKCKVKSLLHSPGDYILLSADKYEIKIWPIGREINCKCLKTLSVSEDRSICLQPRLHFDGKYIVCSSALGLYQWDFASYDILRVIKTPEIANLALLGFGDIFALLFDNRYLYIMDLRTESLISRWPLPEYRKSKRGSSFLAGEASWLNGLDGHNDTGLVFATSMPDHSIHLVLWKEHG

The target of experiment [2] is ATR, endogenous (human (endogenous in MCF7)), Q13535. The conditions noted are these: remark: other sources report otherwise.

No constants are given. Whether binding was seen depends on the method and setting. In cells and extracts the contact can be indirect. Some binding calls cover weakened binding; strength is not graded here. For some assays here: Where a sequence is shown, tags or fusion partners need not be part of it.

B1: FBXW2, endogenous (protein, UniProt Q9UKT8 1-454)
chain: T4 sequence
As for B1, in experiment [1], the binding entry is given as “binds”.

B2: Apoptosis inhibitor 5 (Api5), endogenous (protein, UniProt Q9BZZ5 1-524)
chain: T1 sequence
In the case of B2, the binding result with myc-tagged FBXO3 (human), in the experiment with myc-tagged FBXO6 (human) and with myc-tagged FBXW2 (human) was “binds” each time.

B3: mCherry-tagged Api5, Q9BZZ5 1-524 (protein)
chain: T1 sequence
As to B3, the binding result in experiment [2] was “binds”.
